# Assay results from PMC10853778 (Nucleic Acids Research, 2022).
# System: T1, RTEL1 HHD1 (Homo sapiens)
# T1 sequence (looked up): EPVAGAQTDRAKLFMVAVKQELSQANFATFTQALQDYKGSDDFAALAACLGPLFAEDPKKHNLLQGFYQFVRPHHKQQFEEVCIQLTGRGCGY
# Assay: NMR titration
# Conditions: minor CSPs, no or very weak binding; NMR: 20 mM Tris-HCl pH 7.4, 50 mM NaCl, 2 mM DTT, 0.02% NaN3, 10% D2O, 25 C (one ssDNA-22 titration at pH 6.5); recombinant protein; residues 886-978; protein details: N-terminal 6xHis
sequence,measurement,value
AGGATTAGGATTAGGATTAGGA (double strand) [dsDNA-22],binding result,binds more weakly

# Construct, isoform or probe ends are uncertain for at least one entry. Weaker means in comparison with the reference protein, sequence or condition of that experiment. Where a protein sequence is shown, tags need not be part of it.
